Measurements from PubChem BioAssay AID493014 (National Center for Advancing Translational Sciences (NCATS), 2011).
Hit rate of the full screen: of about 340,000 compounds, about 170 (0.05%) were called active. Inconclusive results, whose numbers are uncertain, are shown with a selection of clear calls. Calls follow the shape of the dose curve; as a rule, active = well fitted inhibition curve with a large enough effect in the signal ratio, with a control signal flat (not every such curve was filed as active); inconclusive = small, poorly fitted or top-dose-only effect, or effect the other way, or a change in a side signal; inactive = flat fitted curve, though single readings scatter; the % refers to the signal ratio. Where the call is inconclusive, the potency comes from a doubtful curve fit.

Test: qHTS Assay to Find Inhibitors of Chronic Active B-Cell Receptor Signaling;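 as to activity change, negative = inhibition: plate controls were basal doxycycline-induced cells for no effect and cells given 10 µM MG132 for full effect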
Conditions: ABC-DLBCL IkBa-CBG/CBR reporter, luminescence ratio (green luciferase fused to IkBa over red control in TMD8 lymphoma cells), 4 h; activity change, negative = inhibition: at 46.1 µM (top of the series)
Method in brief: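 TMD8 ABC-DLBCL cells carrying doxycycline-inducible green luciferase fused to IkappaBalpha plus unfused red luciferase were exposed to compounds (up to 46 uM) for 4 hrs at 37C. Activity came from the overlap-corrected green/red luminescence ratio.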
Potency is read from the fitted curve at half-maximal effect.

SMILES | activity change, negative = inhibition | Potency
Nc1ccccc1C(=O)N/N=C1/C2CN3CCN(C2)CC1(Cc1ccccc1)C3 | inconclusive: 400% | 
CC(C)[C@H](NC(=O)c1ccccc1F)C(=O)NC1CCCCC1 | inconclusive: -2.5% | 
O=C(CN1CCN(Cc2ccccc2)CC1)Nc1ccc([N+](=O)[O-])cc1C(=O)Nc1ccccc1F | inconclusive: -3.29% | 
COc1ccc(NS(=O)(=O)c2ccc(-n3nnc4ccccc43)c([N+](=O)[O-])c2)cc1 | inconclusive: -10.1% | 
COc1ccc(CN2CCN(C(=O)c3cccc4ccccc34)CC2)c(OC)c1OC | inconclusive: 1.37% | 
C=C(C)CSc1cc(C)c(C#N)c2nc3ccccc3n12 |  | inconclusive: 9.2 µM [rising, partial curve, poor fit]
COc1ccc(C(=O)NN=C2CCCC2)cc1OC |  | inconclusive: 12.6 µM [falling, single point]
Cn1c(=O)c(C(=O)NNC(=O)c2ccc(Br)cc2)c(O)c2ccccc21 | inconclusive: -14.6% | 
COc1cccc(N2CCN(c3ccc(S(=O)(=O)N4CCN(C)CC4)cc3[N+](=O)[O-])CC2)c1 | inconclusive: -12.4% | 
Nc1nc(Nc2cccc(C(F)(F)F)c2)sc1C(=O)c1ccccc1 |  | inconclusive: 35.5 µM [rising, single point]
Cc1cccc(C(C)C)c1NC(=O)c1ccc(CN(c2ccccc2)S(=O)(=O)c2ccccc2)cc1 | inactive: 7.53% | 
Cc1nc2ccc(C(=O)N/N=C/c3ccc(O)cc3)cc2[nH]1 | inconclusive: -1.46% | 
Cc1csc(NC(=O)CSC2=NS(=O)(=O)c3ccccc3N2)n1 |  | inconclusive: 29.1 µM [falling, partial curve, poor fit]
Cc1oc2cc(O)cc(O)c2c(=O)c1-c1ccc2c(c1)OCCCO2 | inconclusive: 4.36% | 
O=C(COC(=O)C1CC1)Nc1ccc(Oc2ccccc2)cc1 | inconclusive: -10.5% | 
N#C/C(=C/c1ccccc1OCc1ccc(F)cc1)c1ccc(C(=O)O)cc1 | inconclusive: 6.8% | 
Fc1ccccc1/C=N/n1c(C2CCCCC2)n[nH]c1=S | inconclusive: 4.86% | 
COC(=O)c1c(N)n(-c2ccc(N3CCOCC3)cc2)c2nc3ccccc3nc12 | inconclusive: 1.52% | 
CCN1C(=O)/C(=C/c2ccc(OCc3ccc(C(=O)O)cc3)c(Cl)c2)NC1=S | inconclusive: 6.17% | 
Cc1cc(SCC(=O)NN)c2cc(Br)ccc2n1 | inconclusive: -2.13% | 
C#CCOc1ccc(Br)cc1/C=N/O | inconclusive: 4.23% | 
CCCN(S(=O)(=O)c1ccccc1F)S(=O)(=O)c1ccccc1Br | inactive: 7.38% | 
CN(C)c1oc(-c2ccccc2Cl)nc1C#N | inconclusive: 1% | 
CCOc1cccc2cc(-c3cn4c(n3)sc3cc(C)ccc34)c(=O)oc12 |  | inconclusive: 0.316 µM [falling, full curve, poor fit]
O=C(Nc1ccc(N2CCOCC2)nc1)c1ccccc1Cl |  | inconclusive: 22.4 µM [falling, partial curve]

A portion from the list above:
SMILES | activity change, negative = inhibition | Potency
O=C(CN1CCN(Cc2ccccc2)CC1)Nc1ccc([N+](=O)[O-])cc1C(=O)Nc1ccccc1F | inconclusive: -3.29% | 
COc1ccc(NS(=O)(=O)c2ccc(-n3nnc4ccccc43)c([N+](=O)[O-])c2)cc1 | inconclusive: -10.1% | 
COc1ccc(CN2CCN(C(=O)c3cccc4ccccc34)CC2)c(OC)c1OC | inconclusive: 1.37% | 
C=C(C)CSc1cc(C)c(C#N)c2nc3ccccc3n12 |  | inconclusive: 9.2 µM [rising, partial curve, poor fit]
COc1ccc(C(=O)NN=C2CCCC2)cc1OC |  | inconclusive: 12.6 µM [falling, single point]
Cn1c(=O)c(C(=O)NNC(=O)c2ccc(Br)cc2)c(O)c2ccccc21 | inconclusive: -14.6% | 
COc1cccc(N2CCN(c3ccc(S(=O)(=O)N4CCN(C)CC4)cc3[N+](=O)[O-])CC2)c1 | inconclusive: -12.4% | 
Nc1nc(Nc2cccc(C(F)(F)F)c2)sc1C(=O)c1ccccc1 |  | inconclusive: 35.5 µM [rising, single point]
Cc1cccc(C(C)C)c1NC(=O)c1ccc(CN(c2ccccc2)S(=O)(=O)c2ccccc2)cc1 | inactive: 7.53% | 
Cc1nc2ccc(C(=O)N/N=C/c3ccc(O)cc3)cc2[nH]1 | inconclusive: -1.46% | 
Cc1csc(NC(=O)CSC2=NS(=O)(=O)c3ccccc3N2)n1 |  | inconclusive: 29.1 µM [falling, partial curve, poor fit]
Cc1oc2cc(O)cc(O)c2c(=O)c1-c1ccc2c(c1)OCCCO2 | inconclusive: 4.36% | 

Next compounds.

SMILES | activity change, negative = inhibition | Potency
COC(=O)C(Cc1ccccc1)NC(=O)c1ccc(NS(=O)(=O)c2ccc3[nH]c(=O)[nH]c3c2)cc1 (stereo not given) | inconclusive: 2.58% | 
Cc1ccc(S(=O)(=O)N2CCC(C(N)=O)CC2)cc1[N+](=O)[O-] | inactive: 7.32% | 
CC(C)CN(C(=O)C1=NN(c2ccccc2)C(=O)CC1)c1c(N)n(Cc2ccccc2)c(=O)[nH]c1=O | inactive: 3.27% | 
COc1ccc2c(-c3ccc(OCCN4CCCCC4)cc3)c(-c3ccccc3OC)sc2c1 |  | inconclusive: 18.4 µM [falling, single point]
COCCNC(=O)C(=O)N/N=C/c1cccs1 | inconclusive: -11.9% | 
O=C(Nc1cc(S(=O)(=O)N2CCOCC2)ccc1N1CCCCC1)c1ccccc1 | inactive: 0.663% | 
COc1cccc(C(=O)NC2CC3CCCC(C2)N3CC(=O)Nc2ccccc2)c1 (stereo not given) | inactive: 4.27% | 
O=C(Cc1ccccc1)N(Cc1cccnc1)c1nc2c(F)cccc2s1 | inconclusive: 28.2% | 
CC1CCN(c2nnc(NC(=O)Cn3c(=O)oc4ccccc43)s2)CC1 |  | inconclusive: 2.06 µM [rising, partial curve, poor fit]
Fc1ccc(C2CC(c3cccs3)=NN2c2ccccc2)cc1 (stereo not given) | inconclusive: 5.08% | 
Cn1cc(Cl)c(C(=O)N/N=C/c2ccc(OS(=O)(=O)c3ccccc3)cc2)n1 |  | inconclusive: 25.9 µM [falling, partial curve]
COc1ccc(COC(=O)Oc2ccc(CNC(C)=O)cc2OC)c([N+](=O)[O-])c1 | inconclusive: 9.53% | 
COc1ccc(/C=N/NC(=O)c2cc(C)oc2C)cc1OCc1ccccc1 |  | inconclusive: 11.2 µM [falling, partial curve]
Cc1nn(CCOc2ccccc2)c(=O)n1-c1c(F)cccc1F | inconclusive: 5.88% | 
O=C(c1ccccc1)c1cccc(C(=O)c2ccccc2)c1 | inactive: 0.229% | 
Cc1cccc(N(C)C(=O)CN2C(=O)COc3ccc(S(=O)(=O)N4CCCCCC4)cc32)c1 | inconclusive: 11.1% | 
COc1ccc(CN(C(=O)CNC(=O)c2ccco2)C(C(=O)NC2CCCC2)c2ccco2)cc1 (stereo not given) | inconclusive: 10.9% | 
O=C(COC(=O)c1cccs1)NCc1ccco1 | inconclusive: 1.45% | 
Cc1ccc(S(=O)(=O)Nc2cccc3c2O[C@H](CN(C)C(=O)Nc2cccc4ccccc24)[C@H](C)CN([C@H](C)CO)C3=O)cc1 | inconclusive: 2.6% | 
O=C(CCC1CCCCC1)Nc1c2c(nn1-c1ccc(F)cc1)CS(=O)(=O)C2 | inactive: 0.0613% | 
CC(NC(=O)Cc1ccc(Br)cc1)c1ccccc1 (stereo not given) | inconclusive: 5.45% | 
CCOc1cc(/C=N\Nc2ccc([N+](=O)[O-])cc2)ccc1OCC(=O)Nc1ccc(C)c(C)c1 | inactive: 4.65% | 
O=C(NCc1cccs1)C(=O)c1cn(CC(=O)N2CCCC2)c2ccccc12 |  | inconclusive: 8.91 µM [falling, partial curve]
Cc1ccc(-n2cc(-c3ccccc3)c3c(NC4CCCC4)ncnc32)cc1 | inconclusive: 15% | 
O=C(O)c1cc(Nc2cc(Cl)c3nonc3c2[N+](=O)[O-])ccc1O | inactive: 6.01% | 
